Values of other authors as cited in patent US9579299B2, “CNS pharmaceutical compositions and methods of use” (TARGIA PHARMACEUTICALS, priority 2008, dated 2017).

Conditions: CNS active agent; cited from earlier work

In the case of `CN1C(=O)CN=C(c2ccccc2)c2cc(Cl)ccc21` [Diazepam], the Tmax is listed as 30 to 90 min.
